Results are given in words; binding and its absence hold for the method and conditions named. Binding seen in cells or lysates may run through a third protein. These calls come from enrichment with a bait or labelling near it, and not all partners need be listed.

Protein sequences, listed by entry. Tags and fused reporters are not part of them.
UniProt Q9UNN5: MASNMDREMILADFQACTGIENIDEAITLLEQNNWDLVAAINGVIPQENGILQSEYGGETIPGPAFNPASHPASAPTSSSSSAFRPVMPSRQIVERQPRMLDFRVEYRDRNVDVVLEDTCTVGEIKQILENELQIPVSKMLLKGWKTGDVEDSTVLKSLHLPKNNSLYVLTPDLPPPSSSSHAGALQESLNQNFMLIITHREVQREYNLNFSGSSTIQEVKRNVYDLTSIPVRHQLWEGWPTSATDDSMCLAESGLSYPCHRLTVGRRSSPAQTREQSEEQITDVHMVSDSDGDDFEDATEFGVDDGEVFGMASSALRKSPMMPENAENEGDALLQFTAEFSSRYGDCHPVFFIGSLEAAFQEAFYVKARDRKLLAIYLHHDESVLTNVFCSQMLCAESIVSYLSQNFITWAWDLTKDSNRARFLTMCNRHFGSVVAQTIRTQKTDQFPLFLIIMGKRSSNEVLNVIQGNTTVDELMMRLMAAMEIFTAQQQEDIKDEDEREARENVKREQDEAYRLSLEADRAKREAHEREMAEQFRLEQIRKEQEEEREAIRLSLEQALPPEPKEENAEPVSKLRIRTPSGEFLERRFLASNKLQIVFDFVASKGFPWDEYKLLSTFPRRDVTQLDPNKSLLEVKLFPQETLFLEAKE

Consider one molecule from paper PMC6709923.

In the experiment the target is Fas-associated factor 1 (endogenous, HEK293) (human (endogenous in HEK293)) (UniProt Q9UNN5). Nature of the experiment: affinity purification with mass spectrometry; large-scale cultured HEK293 cells lysed in RIPA buffer; anti-FAF1 antibody overnight at 4°C, protein A/G agarose; washed with 1% nonidet P-40; bands cut from a Coomassie-stained gel, Q-TOF.

B1: NADPH oxidase activator 1 (endogenous, HEK293) (protein, UniProt Q86UR1 1-476)
chain: MASLGDLVRAWHLGAQAVDRGDWARALHLFSGVPAPPARLCFNAGCVHLLAGDPEAALRAFDQAVTKDTCMAVGFFQRGVANFQLARFQEALSDFWLALEQLRGHAAIDYTQLGLRFKLQAWEVLHNVASAQCQLGLWTEAASSLREAMSKWPEGSLNGLDSALDQVQRRGSLPPRQVPRGEVFRPHRWHLKHLEPVDFLGKAKVVASAIPDDQGWGVRPQQPQGPGANHDARSLIMDSPRAGTHQGPLDAETEVGADRCTSTAYQEQRPQVEQVGKQAPLSPGLPAMGGPGPGPCEDPAGAGGAGAGGSEPLVTVTVQCAFTVALRARRGADLSSLRALLGQALPHQAQLGQLSYLAPGEDGHWVPIPEEESLQRAWQDAAACPRGLQLQCRGAGGRPVLYQVVAQHSYSAQGPEDLGFRQGDTVDVLCEVDQAWLEGHCDGRIGIFPKCFVVPAGPRMSGAPGRLPRSQQGDQP
Take B1: the binding entry is given as “binds”.
